Laboratory results taken from the supplement of paper PMC5949888.
Most values lie at the floor of the assay. Slopes are relative: functional sequences can read slightly below zero.

Each substance was assayed on Saccharomyces cerevisiae PS128 hsf1 delta, HSF1(1-493) fusion (assay: growth estimate (transactivation domain function in HSF1 fusion, heat-shock survival) (a.u. (slope of normalised read count over time)); higher = stronger growth at 37°C, i.e. more transactivation activity). Conditions: library: random library.
For CIEAYQSVGYVGRILQVRTN, the growth estimate was < -0.25.
QKGARMIWRAVVGRPYKFDC was tested, and the growth estimate was < -0.25.
MGIRWRARFRSE was tested, and the growth estimate was < -0.25.
In the case of SVESSLSPRPVRGG, the growth estimate was < -0.25.
For GRHEERPFGAVDGPRHTPSA, the growth estimate was < -0.25.
With SVPEKVQQDEHRLL the growth estimate was < -0.25.
With CQHATCGVVTARDGLSPSAA the growth estimate was < -0.25.
PTYMGM was tested, and the growth estimate was < -0.25.
In the case of WGGVTLGWVRVSRRTE, the growth estimate was < -0.25.
For QGPTPAWTVGPQRTCWPANA, the growth estimate was < -0.25.
DHLQCGSTFLLGTTDS was tested, and the growth estimate was < -0.25.
DPAGWANRLPWETFLSFRYS was tested, and the growth estimate was < -0.25.
For YNDNQLSR, the growth estimate was < -0.25.
In the case of SVGTLSPVHSGVGPGYSYSA, the growth estimate was < -0.25.
In the case of GERVGHFVVKVREESRGSGS, the growth estimate was < -0.25.
VSRYSGIDSVTAY was tested, and the growth estimate was < -0.25.
With FSEYASRSDPCPRDSQRPEP the growth estimate was < -0.25.
For SDINQHWENWHHELVCRSKA, the growth estimate was < -0.25.
With RYQTGTVMKYRGSGVHLILA the growth estimate was < -0.25.
With VVKRMVVFRTDDSLDLHWSE the growth estimate was < -0.25.
With NVNGPKSTKIESGTTQTHKA the growth estimate was < -0.25.
FEAMHGDASTMCTPNYSLIC was tested, and the growth estimate was < -0.25.
PFT was tested, and the growth estimate was < -0.25.
With SGHTMGQWVWMRFYPE the growth estimate was < -0.25.
SIAINVVIAESQEPCLQFRT was tested, and the growth estimate was < -0.25.
In the case of RLERLW, the growth estimate was < -0.25.
For CLLHI, the growth estimate was < -0.25.
With NGLGCEPIAAF the growth estimate was < -0.25.
In the case of WFVQNPQLSRLRYGDTST, the growth estimate was < -0.25.
In the case of ATDRGALPG, the growth estimate was < -0.25.
RLSQALESL gave a growth estimate of -0.246.
For LGRVIRVLL, the growth estimate was < -0.25.
For YNGGEGERCIGFIVRTLVSP, the growth estimate was < -0.25.
With LSRGMITWFSLLSVDPEHRP the growth estimate was < -0.25.
With RISVVSSFLRSRRRSLDQDA the growth estimate was < -0.25.
VGWEISRISV was tested, and the growth estimate was < -0.25.
In the case of TTKGHPRHR, the growth estimate was < -0.25.
With CWGTGRRDLRI the growth estimate was < -0.25.
With LGTE the growth estimate was < -0.25.
In the case of IPGDRRTLPCGVRGLVACGA, the growth estimate was < -0.25.
For FMVNLSDWCIQDVYGGAMSL, the growth estimate was < -0.25.
IELMRRLPVTVTL was tested, and the growth estimate was < -0.25.
With RGGINITRRCSKILKVSRAL the growth estimate was < -0.25.
With LQLFRLAWLLGTIYTRLSMY the growth estimate was < -0.25.
LSVQGGSWA was tested, and the growth estimate was < -0.25.
For PNSDMRSAHLSPPCPVSTVL, the growth estimate was < -0.25.
With LTNG the growth estimate was < -0.25.
WNECLTDEIVCQEEHGTVRA was tested, and the growth estimate was < -0.25.
In the case of SREAHDEFLFEVPYYPMD, the growth estimate was -0.246.
For AESWNPAGKAIWEENSG, the growth estimate was < -0.25.
ACEVPGGSGSLIVVGGLSAP was tested, and the growth estimate was < -0.25.
For VKSDKRRWAS, the growth estimate was < -0.25.
With SVVPFQYQ the growth estimate was < -0.25.
CHMSMFPDASNFILSY was tested, and the growth estimate was < -0.25.
ADSAGLLGPSTNS showed a growth estimate of -0.248.
SPTKLDSRRNVLICRRGPTA was tested, and the growth estimate was < -0.25.
SGLWEGEGSSG was tested, and the growth estimate was < -0.25.
PKGPLSLHSTCKAHPFCTLP was tested, and the growth estimate was < -0.25.
With ARHVMACGQATWQGEK the growth estimate was < -0.25.
In the case of IFAPIARYRRRVKGAKPGSS, the growth estimate was < -0.25.
LLEIDKLNRL was tested, and the growth estimate was < -0.25.
For CLESLRVVPV, the growth estimate was -0.248.
For YAARFWGSV, the growth estimate was < -0.25.
For HHTSIASELAAYFSCLLRRQ, the growth estimate was < -0.25.
For TYDIGHLSLGVATLSSSPLG, the growth estimate was < -0.25.
With DGVVMGSLAGPSCKSVYHSF the growth estimate was < -0.25.
For GDYFRPWLARSNNRPKKVFN, the growth estimate was < -0.25.
For SRTHVRSHWLVFACVGDSFP, the growth estimate was < -0.25.
With TSVGRILSLRTALSYPSRAK the growth estimate was < -0.25.
With ESVFPPLSSIILWLKIRSDQ the growth estimate was < -0.25.
SINGGHLKEHLYRTAQGPAR was tested, and the growth estimate was < -0.25.
For SSATRRPGRM, the growth estimate was < -0.25.
GQRDTPVRGGSRMYCSSVTA was tested, and the growth estimate was < -0.25.
In the case of VSILSIVVRLAHIG, the growth estimate was < -0.25.
For PRRG, the growth estimate was < -0.25.
PYEGNEKSRMS was tested, and the growth estimate was < -0.25.
In the case of GTAMGGWLA, the growth estimate was < -0.25.
For VRD, the growth estimate was < -0.25.
VCSLNRTLA was tested, and the growth estimate was < -0.25.
In the case of RVVPIRAEYTSNART, the growth estimate was < -0.25.
LGTRGFRRRGVGIATQHIRL was tested, and the growth estimate was < -0.25.
With PLRNIAFCGSILMRSAWPSW the growth estimate was < -0.25.
With RKLGHNVRTG the growth estimate was < -0.25.
With YMFTIGA the growth estimate was < -0.25.
In the case of LAIRDFKHGFYGADRS, the growth estimate was < -0.25.
For GSVAWCRPGTTSGLRLPGRD, the growth estimate was < -0.25.
DDG was tested, and the growth estimate was < -0.25.
With YLVARWRFSGSGVVGILT the growth estimate was < -0.25.
For DDRITLLSEG, the growth estimate was < -0.25.
With LTIVLGQIG the growth estimate was < -0.25.
For CLGSGANGQISFTARLRVGP, the growth estimate was < -0.25.
For PDLAVISNICYPAQADYGGL, the growth estimate was < -0.25.
For AGSGP, the growth estimate was -0.246.
For SVSNVGPDRWAVVREPTIRN, the growth estimate was < -0.25.
With VPLKVERGTQRFST the growth estimate was < -0.25.
In the case of VHLGSVGSPSLGNERVAPVA, the growth estimate was < -0.25.
For SDRYPYKEPVYSA, the growth estimate was -0.233.
In the case of RALPSY, the growth estimate was < -0.25.
SGFDPPAYLLEDIQLDDLAR was tested, and the growth estimate was < -0.25.
LAPQ was tested, and the growth estimate was < -0.25.
For WRSCLKELDPVHEISNVQIR, the growth estimate was < -0.25.
QKIGEPGFLSLGNYQKRC was tested, and the growth estimate was < -0.25.
PHPHLRDRCHYIWCLQSLRR was tested, and the growth estimate was < -0.25.
With GPHARLWSRVGSVLIGP the growth estimate was < -0.25.
In the case of GPWFPHWQARESFIQHWTNQ, the growth estimate was < -0.25.
ASRGAYHWGLSSMSGL was tested, and the growth estimate was < -0.25.
In the case of VGINRPGSLTERHYR, the growth estimate was < -0.25.
For AKCFAWTSYI, the growth estimate was < -0.25.
With PVIASLWRRPESARVTPLAK the growth estimate was < -0.25.
With SADSDHQTGEMLRGVRCM the growth estimate was < -0.25.
In the case of ICLPGVVTEETCDN, the growth estimate was < -0.25.
With TSGICAREPRAL the growth estimate was < -0.25.
With IPQRPARTSNTNSPADARFR the growth estimate was < -0.25.
In the case of PFPTLADGYQALLRVPIRVV, the growth estimate was < -0.25.
In the case of PRAVQSERVLVQAQSKMAYP, the growth estimate was < -0.25.
FTITMMRPRRIRSGRLRSRG was tested, and the growth estimate was < -0.25.
For YLPPGRAHAQPYDQRCICGP, the growth estimate was < -0.25.
With LEGAT the growth estimate was < -0.25.
VFDGR was tested, and the growth estimate was < -0.25.
In the case of NRLWFAKSRR, the growth estimate was < -0.25.
For FVVLTQAAVAPM, the growth estimate was < -0.25.
In the case of IPHFEGVGLT, the growth estimate was < -0.25.
With TTGRC the growth estimate was < -0.25.
FGNGRPEYS was tested, and the growth estimate was < -0.25.
DLVHRPVAQHYRVCVCRSSV was tested, and the growth estimate was < -0.25.
GTIEVKSQRRI was tested, and the growth estimate was < -0.25.
With RWAL the growth estimate was < -0.25.
GNLGRN was tested, and the growth estimate was < -0.25.
With KVMKEGPCLYLGARALGALL the growth estimate was < -0.25.
With RTRSTPGDRRIGNCDHTEPA the growth estimate was < -0.25.
For HVDAWLIPRCA, the growth estimate was < -0.25.
RGSSVPDTVSAN was tested, and the growth estimate was < -0.25.
For SAA, the growth estimate was < -0.25.
TEGVLVTTSAIMHIVATEPV gave a growth estimate of -0.246.
With GRRRVRFD the growth estimate was < -0.25.
VKL was tested, and the growth estimate was < -0.25.
For VVIDCV, the growth estimate was < -0.25.
For VREGPAKESSYRLVEVVRVN, the growth estimate was < -0.25.
NGKRVREGITVIVRTLVHPA was tested, and the growth estimate was < -0.25.
With PRH the growth estimate was < -0.25.
In the case of CRFSS, the growth estimate was < -0.25.
With PCRSDSE the growth estimate was < -0.25.
For TTSDTALEEGLMITPFLLPL, the growth estimate was < -0.25.
In the case of HAIDVVARSSQGSSR, the growth estimate was < -0.25.
With HVLLNDGEVQVIFERAFRVV the growth estimate was < -0.25.
For NGRIPETVIPGPCK, the growth estimate was < -0.25.
With LNGTVSDDNAIGVTISAH the growth estimate was < -0.25.
With LPSQRQTWVSCIVQGIRC the growth estimate was < -0.25.
VAS was tested, and the growth estimate was < -0.25.
In the case of DLRGIS, the growth estimate was < -0.25.
For CPITA, the growth estimate was < -0.25.
For HFGQVA, the growth estimate was < -0.25.
With GEM the growth estimate was < -0.25.
In the case of RGVETKVQGYVMNVASIAGS, the growth estimate was < -0.25.
For DRTSEHVAS, the growth estimate was < -0.25.
For PNG, the growth estimate was < -0.25.
In the case of LFYTDIPNTLGTLGRSYVES, the growth estimate was < -0.25.
With QSIVAIRESILRGGGSL the growth estimate was < -0.25.
For GATLEMKRTIK, the growth estimate was < -0.25.
HCSLEGFGARFLGKCWCSAV was tested, and the growth estimate was < -0.25.
